Test results reported in PMC9828637, “Pol32, an accessory subunit of DNA polymerase delta, plays an essential role in genome stability and pathogenesis of Candida albicans” (Gut Microbes, 2023).
These are yes or no findings as the source states them, for the method shown. Some entries that bind do so weakly or less than the wild type.

Tests used:
[1] = biological target: CaPol32 (F398A, F399A) (GST tag cleaved) (C. albicans); experiment: condition: 250 μM CaPCNA injected into 20 μM CaPol32 (F398A, F399A); ITC; MicroCal PEAQ-ITC, 25°C, 20 mM HEPES pH 7.4, 150 mM NaCl; 20 μM CaPol32 or CaPol32 (F398A, F399A) in the cell, 250 μM CaPCNA in the syringe, 25 injections of 1.5 μl; one-site binding model; both purified
[2] = biological target: GST-CaPol32 (F398A, F399A) (C. albicans); experiment: pull-down; GST-CaPol32 or GST-CaPol32 (F398A, F399A) bound to glutathione-Sepharose beads, mixed with 0.5 µg CaPCNA (equimolar), overnight; washed with 50 mM Tris-HCl pH 7.5, 150 mM NaCl, 5 mM DTT, 0.01% NP-40, 10% glycerol; eluted in SDS loading buffer; western blot with anti-CaPCNA antibody; both purified
[3] = biological target: GST-CaPol32 (wild type) (C. albicans); experiment: as above

B1: CaPCNA (natural protein, C. albicans, UniProt Q5AMN0 1-259, looked up)
chain: MLEGKFEEAALLKKVVEAIKDCVKKCNFNCSEHGITVQAVDDSRVLLVSLLIGQTSFSEYRCDRDVTLGIDLESFSKIIKSANNEDFLTLLAEDSPDQIMAILEEKQKEKISEYSLKLMDIDSEFLQIDDMEYDAVVNMPSSDFAKLVRDLKNLSESLRVVVTKDSVKFTSEGDSGSGSVILKPYTNLKNERESVTISLDDPVDLTFGLKYLNDIVKAATLSDVITIKLADKTPALFEFKMQSGGYLRFYLAPKFDDDE
notes: PCNA (proliferating cell nuclear antigen, DNA sliding clamp), C. albicans; it calls PCNA trimeric without measuring this here; also called proliferating cell nuclear antigen of C. albicans; source: E. coli BL21 DE3, purified (glutathione-Sepharose 4B, GST cleaved with PreScission protease)
In the case of B1, the binding [1] is reported as “no binding”, the binding [2] is reported as “no binding (tested: 0.5 µg CaPCNA)” and the binding [3] is reported as “binds”.
